## Small-molecule microarray binding calls

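Each compound is printed as two spots on a slide made to bind it covalently, so it has no test concentration; the read-out is fluorescence of the bound, labelled oligonucleotide. The data file lists only calls. An earlier report of the laboratory on the PreQ1, TPP and SAM-II riboswitches (doi:10.1038/s41467-019-09493-3) used 1 µM RNA for 2 h and required a mean Z-score above 3 (spot signal-to-noise against the whole library), a score well above that on a control array, and duplicate spots agreeing (coefficient of variation under 100); it then also set aside compounds that hit other targets, which this list keeps. The cut-offs behind this list may differ. A missing hit is not proof of no binding, and a hit is not a measured affinity.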
A compound is marked 1 if it was called a hit and 0 if it was screened but was not.
Compounds were drawn at random from those tested, without regard to their results.
A dash means that no call is listed here.

Targets (5′ to 3′):
T1: TPP riboswitch RNA three-way junction, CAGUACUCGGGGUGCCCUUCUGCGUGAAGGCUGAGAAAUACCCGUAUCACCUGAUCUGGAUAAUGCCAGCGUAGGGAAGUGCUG. About 24,000 compounds screened, about 160 hits.
T2: SAM-II riboswitch RNA pseudoknot, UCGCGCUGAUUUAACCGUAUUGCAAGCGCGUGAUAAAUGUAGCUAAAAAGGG. About 21,000 compounds screened, about 200 hits.
T3: PreQ1 riboswitch RNA pseudoknot, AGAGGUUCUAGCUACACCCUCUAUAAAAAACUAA. From B. subtilis. About 24,000 compounds screened, about 170 hits.

Compound | T1 | T2 | T3
O=C(c1cn2cc(Cl)cnc2n1)N1C[C@@H](CN2CCCCC2)[C@@H](CO)C1 | 0 | 0 | 0
CO[C@H]1C[C@@H](O)C12CCN(c1nccc(C(F)(F)F)n1)CC2 | 0 | 0 | 0
CC(Oc1ccc(O)cc1)(P(=O)(O)O)P(=O)(O)O | 0 | 0 | 0
CC(=O)Oc1ccc(C2C(C#N)=C(N)Oc3[nH]nc(C)c32)cc1 (centres undefined) | 0 | 0 | 0
COc1ccc(CCNCc2ccc(C(F)(F)F)cc2)cc1OC | 0 | 0 | 0
Brc1ccccc1Nc1nc2ccccc2n2cnnc12 | 0 | 0 | 0
COC(=O)[C@@H]1CCCN1C(=O)c1ccccc1NCc1cccs1 | 0 | 0 | 0
O=c1cccc2n1C[C@H]1C[C@@H]2CN2CCCC[C@@H]12 | 0 | 0 | 0
CCOC(=O)c1sc2ncnc(NCCc3ccc(OC)c(OC)c3)c2c1C | 0 | 0 | 0
Oc1cccc(Nc2cc(-c3ccccc3)ncn2)c1 | 0 | - | 0
OCc1ccc(-c2nc(-c3ccco3)nn2-c2ccc3c(c2)OCCO3)o1 | 0 | 0 | 0
O=c1[nH]c(=O)n([C@H]2C[C@@H](O)[C@@H](CO)O2)cc1F | 0 | 0 | 0
COc1ccc2cc3c(N)nn(C(=O)c4cccc(F)c4)c3nc2c1 | 0 | 0 | 0
CSCCC(=O)N1CCC2(CCN(Cc3ccccn3)CC2)C(CO)C1 (centres undefined) | 0 | 0 | 0
Nc1c(-c2nc(-c3ccccc3)cs2)c2ccccn2c1C(=O)c1ccccc1 | 0 | 0 | 0
Cc1ncsc1CCN(C)Cc1cc2n(n1)CCN(c1ccnc(N)n1)C2 | 0 | 0 | 0
Cc1cc2c(c(=O)o1)C(c1ccc(C(F)(F)F)cc1)C(C#N)=C(N)O2 (centres undefined) | 0 | 0 | 0
NCCCCCC(=O)N1CCCC(N2CCN(c3ccc(F)cc3)CC2)C1 (centres undefined) | 0 | 0 | 0
COc1ccc(CNc2ccc3c(c2)ncn3C2CCCCC2)cc1 | 0 | 0 | 0
Cc1ccccc1[C@@H]1CN(Cc2cccnc2N)C[C@H]1C(=O)O | 0 | 0 | 0
COc1ccc(-c2ccc(C(=O)NCc3cc4n(n3)CCNC4)o2)cc1 | 0 | 0 | 0
O=C(c1n[nH]c2c1CCCC2)N(Cc1ccncc1)CC(O)c1ccccc1 (centres undefined) | 0 | 0 | 0
O=C(O)c1ccc(CNCc2ccc(-c3cccc(Cl)c3)o2)cc1 | 0 | - | 0
CC(=O)c1cccc(Nc2nc(-c3ccccn3)cs2)c1 | 0 | 0 | 0
Cc1ccc(N2C(=O)CC(NCCc3ccccc3)C2=O)cc1Cl (centres undefined) | 0 | 0 | 0
O=C(N[C@@H]1CCN(Cc2c[nH]nc2C2CCCCC2)C[C@H]1O)c1cccnc1 | 0 | 0 | 0
CCCCNc1ncccc1-c1nc(-c2ccc(OC)cc2)no1 | 0 | - | 0
Cn1cnc([N+](=O)[O-])c1Nc1ccc(O)cc1 | 0 | 0 | 0
CC(C)(C)c1ccc(Cn2c(CCCO)nc3ccccc32)cc1 | 0 | 0 | 0
OCCOCCN1CCN(Cc2ccsc2)CC1 | 0 | 0 | 0
CCN(CC)CCn1c(=O)c2c(ncn2CC(O)CO)n(C)c1=O (centres undefined) | 0 | - | 0
Clc1ccc(-c2[nH]nc3c2Cc2ccccc2-3)cc1Cl | 0 | 1 | 0
COc1ccc2c(c1)C=C(C(=O)NCCO)C=CO2 | 0 | - | 0
O=C(CN1CC2(CCNCC2)OC1=O)N1CCOC(c2ccc(F)cc2)C1 (centres undefined) | 0 | 0 | 0
Nc1ccc(Oc2ccc3nc(-c4ccc(F)cc4)c(-c4ccc(F)cc4)nc3c2)cc1 | 1 | 0 | 0
COc1ccc2c(Oc3ccc(NC(=O)c4c(C)n(CC(C)(C)O)n(-c5ccccc5)c4=O)nc3)ccnc2c1 | 0 | 0 | 0
NC1=C(c2nc3ccccc3s2)C(=O)CN1CCc1ccccc1 | 0 | 0 | 0
N#Cc1c(-c2cccc(-n3cccn3)c2)cc(-c2cc[nH]c2)nc1N | 0 | 0 | 0
Cc1ccc(S(=O)(=O)c2cnc3ccc(F)cc3c2NCc2ccccc2)cc1 | 0 | - | 0
COc1ccc(CNCCC2(c3ccc(OC)cc3)CCOC(C)(C)C2)cc1 (centres undefined) | 0 | 0 | 0
c1ccc(COc2ccc(Nc3c4c(nc5nncn35)CCC4)cc2)cc1 | 0 | - | 0
Nc1nnc(SCC(=O)n2c3c(c4ccccc42)CCCC3)s1 | 0 | 0 | 0
CN1C[C@H](NC(=O)c2cccc(-c3nc4ccccc4[nH]3)c2)C[C@H]1CO | 0 | 0 | 0
O=C([C@@H]1CCCN1)N1CCC(c2nccn2Cc2cccnc2)CC1 | 0 | 0 | 0
COc1ccc(-c2c(Nc3ccc(C)c(C)c3)c(=O)c2=O)cc1 | 0 | - | 0
CCC(NC1CCS(=O)(=O)C1)C(=O)O (centres undefined) | 0 | 0 | 0
CCOc1ncccc1CNC(=O)c1cccc(C2CCCNC2)c1 (centres undefined) | 0 | 0 | 0
Cc1ccsc1[C@@H]1CCN(Cc2ccc3c(C)cc(=O)oc3c2)C[C@H]1O | 0 | 0 | 0
CCOC(=O)c1cnc2ccc(C(=O)OC)cc2c1Nc1ccc(N2CCCCC2)cc1 | 0 | 0 | 0
NC1=C(c2nc3ccccc3[nH]2)C(=O)CN1c1ccccc1F | 0 | - | 0
OCc1ccc(-c2ccc(-c3nc(Cc4ccc(Cl)cc4)no3)cn2)cc1 | 0 | 0 | 0
Cc1ccc(C2(CN3CCNCC3c3ccccc3)CCNCC2)nc1 (centres undefined) | 0 | 0 | 0
Nc1ccc(S(=O)(=O)Nc2cnc3ccccc3n2)cc1 | 0 | 0 | 0

Once more, the final 7:

Compound	T1	T2	T3
CCOc1ncccc1CNC(=O)c1cccc(C2CCCNC2)c1 (centres undefined)	0	0	0
Cc1ccsc1[C@@H]1CCN(Cc2ccc3c(C)cc(=O)oc3c2)C[C@H]1O	0	0	0
CCOC(=O)c1cnc2ccc(C(=O)OC)cc2c1Nc1ccc(N2CCCCC2)cc1	0	0	0
NC1=C(c2nc3ccccc3[nH]2)C(=O)CN1c1ccccc1F	0	-	0
OCc1ccc(-c2ccc(-c3nc(Cc4ccc(Cl)cc4)no3)cn2)cc1	0	0	0
Cc1ccc(C2(CN3CCNCC3c3ccccc3)CCNCC2)nc1 (centres undefined)	0	0	0
Nc1ccc(S(=O)(=O)Nc2cnc3ccccc3n2)cc1	0	0	0

Calls as published in the ROBIN set (doi:10.1002/anie.202211358).